The record followed here is paper doi:10.1101/2021.07.30.454423.

No constants are given. Whether binding was seen depends on the method and setting. In cells and extracts the contact can be indirect. Some entries that bind do so weakly or less than the wild type.

The test deals with T1, endogenous TMEM30A in mouse brain (mouse (endogenous in brain)) (UniProt Q8VEK0).
T1 sequence: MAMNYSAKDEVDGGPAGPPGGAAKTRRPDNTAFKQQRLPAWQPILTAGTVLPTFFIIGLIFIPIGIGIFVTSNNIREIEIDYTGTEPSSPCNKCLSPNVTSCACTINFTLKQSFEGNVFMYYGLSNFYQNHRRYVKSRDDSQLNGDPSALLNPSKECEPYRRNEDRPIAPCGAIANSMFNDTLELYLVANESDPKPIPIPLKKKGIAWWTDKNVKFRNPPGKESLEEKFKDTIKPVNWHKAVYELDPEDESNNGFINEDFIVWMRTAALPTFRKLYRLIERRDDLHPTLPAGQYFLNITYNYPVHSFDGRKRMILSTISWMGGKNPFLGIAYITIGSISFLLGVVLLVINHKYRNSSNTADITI
Nature of the test: co-IP.

B1: endogenous ATP8A1 in mouse brain (enzyme, UniProt P70704 1-1164)
chain: MPTMRRTVSEIRSRAEGYEKTDDVSEKTSLADQEEVRTIFINQPQLTKFCNNHVSTAKYNVITFLPRFLYSQFRRAANSFFLFIALLQQIPDVSPTGRYTTLVPLLFILAVAAIKEIIEDIKRHKADNAVNKKQTQVLRNGAWEIVHWEKVAVGEIVKVTNGEHLPADLLSLSSSEPQAMCYIETSNLDGETNLKIRQGLPATSDIKDIDSLMRISGRIECESPNRHLYDFVGNIRLDGHGTVPLGADQILLRGAQLRNTQWVHGIVVYTGHDTKLMQNSTSPPLKLSNVERITNVQILILFCILIAMSLVCSVGSAIWNRRHSGKDWYLHLHYGGASNFGLNFLTFIILFNNLIPISLLVTLEVVKFTQAYFINWDLDMHYEPTDTAAMARTSNLNEELGQVKYIFSDKTGTLTCNVMQFKKCTIAGVAYGHVPEPEDYGCSPDEWQSSQFGDEKTFNDPSLLDNLQNNHPTAPIICEFLTMMAVCHTAVPEREGDKIIYQAASPDEGALVRAAKQLNFVFTGRTPDSVIIDSLGQEERYELLNVLEFTSARKRMSVVVRTPSGKLRLYCKGADTVIYERLAETSKYKEITLKHLEQFATEGLRTLCFAVAEISESDFEEWRAVYHRASTSVQNRLLKLEESYELIEKNLQLLGATAIEDKLQDQVPETIETLMKADIKIWILTGDKQETAINIGHSCRLLKRNMGMIVINEGSLDGTRETLSRHCTTLGDALRKENDFALIIDGKTLKYALTFGVRQYFLDLALSCKAVICCRVSPLQKSEVVEMVKKQVKVITLAIGDGANDVSMIQTAHVGVGISGNEGLQAANSSDYSIAQFKYLKNLLMVHGAWNYNRVSKCILYCFYKNIVLYIIEIWFAFVNGFSGQILFERWCIGLYNVMFTAMPPLTLGIFERSCRKENMLKYPELYKTSQNALDFNTKVFWVHCLNGLFHSVILFWFPLKALQYGTVFGNGKTSDYLLLGNFVYTFVVITVCLKAGLETSYWTWFSHIAIWGSIALWVVFFGIYSSLWPAVPMAPDMSGEAAMLFSSGVFWVGLLSIPVASLLLDVLYKVIKRTAFKTLVDEVQELEAKSQDPGAVVLGKSLTERAQLLKNVFKKNHVNLYRSESLQQNLLHGYAFSQDENGIVSQSEVIRAYDTTKQRPDEW
With B1, the binding entry is on record as “binds”.
